No constants are given. Whether binding was seen depends on the method and setting. In cells and extracts the contact can be indirect. Here binding means that the protein was enriched with, or labelled near, the bait; the list need not be complete. Where a sequence is shown, tags or fusion partners need not be part of it.
Target: Flag-Sororin (human), Q96FF9
Assay: affinity purification with mass spectrometry; Flag-Sororin overexpressed in HEK293F cells, precipitated with anti-Flag M2 agarose (4 h, 4 °C), eluted with Flag peptide, eluate analysed by mass spectrometry
Conditions: remark: other sources report otherwise

- binding: binds
B1: STAG2, Q8N3U4 1-1231 (protein)
chain: MIAAPEIPTDFNLLQESETHFSSDTDFEDIEGKNQKQGKGKTCKKGKKGPAEKGKGGNGGGKPPSGPNRMNGHHQQNGVENMMLFEVVKMGKSAMQSVVDDWIESYKHDRDIALLDLINFFIQCSGCKGVVTAEMFRHMQNSEIIRKMTEEFDEDSGDYPLTMAGPQWKKFKSSFCEFIGVLVRQCQYSIIYDEYMMDTVISLLTGLSDSQVRAFRHTSTLAAMKLMTALVNVALNLSINMDNTQRQYEAERNKMIGKRANERLELLLQKRKELQENQDEIENMMNAIFKGVFVHRYRDAIAEIRAICIEEIGIWMKMYSDAFLNDSYLKYVGWTMHDKQGEVRLKCLTALQGLYYNKELNSKLELFTSRFKDRIVSMTLDKEYDVAVQAIKLLTLVLQSSEEVLTAEDCENVYHLVYSAHRPVAVAAGEFLYKKLFSRRDPEEDGMMKRRGRQGPNANLVKTLVFFFLESELHEHAAYLVDSMWDCATELLKDWECMNSLLLEEPLSGEEALTDRQESALIEIMLCTIRQAAECHPPVGRGTGKRVLTAKEKKTQLDDRTKITELFAVALPQLLAKYSVDAEKVTNLLQLPQYFDLEIYTTGRLEKHLDALLRQIRNIVEKHTDTDVLEACSKTYHALCNEEFTIFNRVDISRSQLIDELADKFNRLLEDFLQEGEEPDEDDAYQVLSTLKRITAFHNAHDLSKWDLFACNYKLLKTGIENGDMPEQIVIHALQCTHYVILWQLAKITESSSTKEDLLRLKKQMRVFCQICQHYLTNVNTTVKEQAFTILCDILMIFSHQIMSGGRDMLEPLVYTPDSSLQSELLSFILDHVFIEQDDDNNSADGQQEDEASKIEALHKRRNLLAAFCKLIVYTVVEMNTAADIFKQYMKYYNDYGDIIKETMSKTRQIDKIQCAKTLILSLQQLFNEMIQENGYNFDRSSSTFSGIKELARRFALTFGLDQLKTREAIAMLHKDGIEFAFKEPNPQGESHPPLNLAFLDILSEFSSKLLRQDKRTVYVYLEKFMTFQMSLRREDVWLPLMSYRNSLLAGGDDDTMSVISGISSRGSTVRSKKSKPSTGKRKVVEGMQLSLTEESSSSDSMWLSREQTLHTPVMMQTPQLTSTIMREPKRLRPEDSFMSVYPMQTEHHQTPLDYNRRGTSLMEDDEEPIVEDVMMSSEGRIEDLNEGMDFDTMDIDLPPSKNRRERTELKPDFFDPASIMDESVLGVSMF

— PMC12759081
